Experimental findings from article PMC6721548 are described below.

The chains behind the UniProt entries cited, without tags or fusion partners. Residues count along the entry.
UniProt Q04206: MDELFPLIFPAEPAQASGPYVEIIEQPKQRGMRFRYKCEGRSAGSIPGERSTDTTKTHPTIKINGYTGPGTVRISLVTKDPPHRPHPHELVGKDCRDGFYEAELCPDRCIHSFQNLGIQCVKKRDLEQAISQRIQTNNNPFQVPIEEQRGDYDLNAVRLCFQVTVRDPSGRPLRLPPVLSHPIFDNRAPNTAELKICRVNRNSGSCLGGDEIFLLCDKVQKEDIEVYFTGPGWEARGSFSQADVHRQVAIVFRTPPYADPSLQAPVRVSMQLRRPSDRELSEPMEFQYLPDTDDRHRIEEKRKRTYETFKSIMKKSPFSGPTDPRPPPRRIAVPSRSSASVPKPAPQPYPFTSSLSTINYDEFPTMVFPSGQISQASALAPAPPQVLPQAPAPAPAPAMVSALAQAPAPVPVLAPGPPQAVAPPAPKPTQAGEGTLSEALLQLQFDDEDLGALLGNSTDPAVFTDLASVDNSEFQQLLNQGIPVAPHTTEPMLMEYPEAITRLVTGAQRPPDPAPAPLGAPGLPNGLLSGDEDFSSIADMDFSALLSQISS
UniProt Q9Z1E3: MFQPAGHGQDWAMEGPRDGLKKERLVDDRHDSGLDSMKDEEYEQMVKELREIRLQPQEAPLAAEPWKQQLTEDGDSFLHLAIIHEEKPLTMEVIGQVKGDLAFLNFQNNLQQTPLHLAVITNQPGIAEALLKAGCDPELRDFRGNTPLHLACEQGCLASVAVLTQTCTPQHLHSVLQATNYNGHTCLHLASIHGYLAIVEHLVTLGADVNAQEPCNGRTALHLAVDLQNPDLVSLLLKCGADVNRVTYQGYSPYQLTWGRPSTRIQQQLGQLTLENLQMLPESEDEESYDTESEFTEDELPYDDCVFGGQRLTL
UniProt P19838, residues 1-433: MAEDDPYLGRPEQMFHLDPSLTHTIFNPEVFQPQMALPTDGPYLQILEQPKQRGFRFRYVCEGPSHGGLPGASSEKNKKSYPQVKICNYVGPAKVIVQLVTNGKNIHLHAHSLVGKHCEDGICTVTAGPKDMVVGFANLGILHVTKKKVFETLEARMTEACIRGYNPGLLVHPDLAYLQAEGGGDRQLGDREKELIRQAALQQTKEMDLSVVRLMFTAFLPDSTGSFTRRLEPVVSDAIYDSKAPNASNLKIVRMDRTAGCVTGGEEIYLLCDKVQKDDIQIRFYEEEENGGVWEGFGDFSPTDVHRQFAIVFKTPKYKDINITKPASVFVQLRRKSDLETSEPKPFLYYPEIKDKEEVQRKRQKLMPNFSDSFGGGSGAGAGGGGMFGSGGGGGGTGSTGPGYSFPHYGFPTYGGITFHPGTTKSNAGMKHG
UniProt Q04207: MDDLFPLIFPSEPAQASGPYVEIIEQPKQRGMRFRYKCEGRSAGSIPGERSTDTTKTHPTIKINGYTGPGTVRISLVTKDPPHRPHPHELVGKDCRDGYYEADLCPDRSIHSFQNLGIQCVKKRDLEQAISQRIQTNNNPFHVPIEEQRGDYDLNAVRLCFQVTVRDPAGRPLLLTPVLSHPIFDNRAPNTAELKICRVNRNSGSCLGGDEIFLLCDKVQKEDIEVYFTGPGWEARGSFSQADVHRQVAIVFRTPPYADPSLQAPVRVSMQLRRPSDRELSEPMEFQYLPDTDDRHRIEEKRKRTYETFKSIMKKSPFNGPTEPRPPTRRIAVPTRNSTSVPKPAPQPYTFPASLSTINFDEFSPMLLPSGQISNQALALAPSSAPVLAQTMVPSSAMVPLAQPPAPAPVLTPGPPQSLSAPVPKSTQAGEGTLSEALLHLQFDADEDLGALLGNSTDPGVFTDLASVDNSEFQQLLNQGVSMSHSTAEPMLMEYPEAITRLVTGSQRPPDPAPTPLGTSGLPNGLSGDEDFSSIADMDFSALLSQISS

These are yes or no findings as the source states them, for the method shown. In cells and extracts the contact can be indirect. Some binding calls cover weakened binding; strength is not graded here.

The target in assay [1] is NF-κB p65 (RELA), human, endogenous in HeLa (human (endogenous in HeLa)) (UniProt Q04206). Put plainly: proximity ligation; modified PLA on fixed HeLa cells with additional permeabilisation (0.005% saponin/0.1% Triton-X, 40% glycerol overnight, 3 freeze and thaw cycles) for nuclear access; used for p65/p50 and for Immuno-PLA (p65/IκBα PLA with p65 immunofluorescence); untreated or IL-1α (10 ng/mL).

Assay [2] addresses IκBα (inhibitor of NF-κB alpha), mouse, endogenous in MEFs (mouse (endogenous in MEFs)) (UniProt Q9Z1E3). Put plainly: proximity ligation; in situ PLA (Duolink) on fixed, saponin-permeabilised wild type MEFs, untreated or IL-1α (10 ng/mL) 60 min; antibodies anti-p65 (F-6) and anti-IκBα (E130); controls: p65 -/- MEFs, one or both primary antibodies omitted.

Regarding “NF-κB p50, human, endogenous in HeLa (from UniProt P19838 1-433)”, the binding result in assay [1] was “binds”.

As for “NF-κB p65 (RELA), mouse, endogenous in MEFs (from UniProt Q04207 1-549)”, the binding result in assay [2] is listed as “binds”.
